PubChem BioAssay AID493246, Drosophila RNAi Screening Center | 2011
The deposit covers about 21,000 reagents; this is an unselected part of those that have a named target and a result. In the full data, 429 (2%) were called active. 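Values are raw and not normalised between plates; calls rest on per-plate z-scores that were not deposited.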 Unmarked entries are inactive. The record does not give: the amount of reagent, the time to read-out.

- Test: 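Identify essential fly genes by loss of cell viability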 (primary screen)
- System: Drosophila Kc and S2R+ cells
- Reagent: long dsRNA against Drosophila genes
- Detection: 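Raw, unnormalised count of remaining cells in each well; per-plate z-scores of cell number underlie the calls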
- Scale: Kc cell number and S2R+ cell number: higher = more cells remaining
- Active means: 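Counted as a hit if cell number falls by a z-score of at least 3 within its plate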

gene knocked down	dsRNA	Kc cell number, rep 1	Kc cell number, rep 2	S2R+ cell number, rep 1	S2R+ cell number, rep 2
osy	DRSC14903	1.88e6	1.88e6	1.06e6	1.19e6
osy	DRSC15979	1.71e6	1.74e6	1.08e6	1.23e6
osy	DRSC15981	4.85e5		7.47e5	
nolo	DRSC03705	1.42e6	1.52e6	1.07e6	1.05e6
nolo	DRSC03719	1.50e6	1.62e6	1.36e6	2.87e5
nolo	DRSC03720	1.45e6	1.57e6	1.36e6	3.16e5
CG13575	DRSC04211	1.52e6	1.58e6	1.26e6	1.38e6
Ssl	DRSC04657	1.54e6	1.59e6	1.27e6	1.37e6
CG30378	DRSC05071	1.43e6	1.51e6	9.40e5	1.02e6
CG11170	DRSC04090	1.25e6	1.35e6	1.03e6	1.12e6
Fim	DRSC20243	1.44e6	1.51e6	1.05e6	1.23e6
CG10222	DRSC09714	1.49e6	1.64e6	1.28e6	1.32e6
rush	DRSC18568	5.35e5		9.20e5	
CG32271	DRSC08198	1.59e6	1.54e6	1.08e6	1.42e6
CG6163	DRSC10595	1.47e6	1.58e6	1.40e6	1.46e6
Su(fu)	DRSC16871	1.53e6	1.59e6	1.28e6	1.41e6
wnd	DRSC09626	1.45e6	1.52e6	1.07e6	1.23e6
wnd	DRSC11046	1.52e6	1.54e6	1.42e6	1.39e6
CG15818	DRSC02505	1.40e6	1.37e6	6.13e5	8.01e5
Pgd	DRSC18697	5.04e5		8.10e5	
CG6296	DRSC16013	4.83e5		8.45e5	
upSET	DRSC11051	8.66e5 (active)	1.05e6	8.06e5	8.99e5
mahj	DRSC04053	1.26e6	1.37e6	9.13e5	9.50e5
klu	DRSC11357	1.53e6	1.46e6	1.22e6	1.34e6
l(3)72Dp	DRSC10477	1.38e6	1.54e6	1.31e6	1.42e6
CG5510	DRSC15823	1.34e6	1.38e6	9.83e5	1.05e6
CG3955	DRSC06859	1.25e6	1.34e6	1.01e6	1.02e6
me31B	DRSC03569	9.69e5	1.00e6	9.76e5	1.08e6
CG4770	DRSC15639	1.16e6	1.17e6	1.16e6	1.25e6
CG14013	DRSC02344	1.51e6	1.23e6	9.50e5	1.02e6
CG41099	DRSC21049	1.44e6	1.52e6	1.05e6	1.11e6
CG41099	DRSC21051	1.44e6	1.44e6	1.04e6	1.11e6
Fhos	DRSC08943	1.39e6	1.42e6	1.01e6	1.13e6
Fhos	DRSC10545	1.46e6	1.46e6	1.26e6	1.19e6
Fhos	DRSC10546	1.41e6	1.49e6	1.30e6	1.20e6
Fhos	DRSC10547	1.50e6	1.33e6	1.26e6	1.30e6
alpha-PheRS	DRSC18224	5.60e5		8.57e5	
CG13700	DRSC10049	1.40e6	1.53e6	1.30e6	1.41e6
prt	DRSC16894	1.54e6	1.55e6	9.76e5	1.08e6
S-Lap5	DRSC06732	1.52e6	1.51e6	1.21e6	1.38e6
CG13829	DRSC14679	1.45e6	1.51e6	9.68e5	1.09e6
CG3939	DRSC18498	1.55e6	1.63e6	1.05e6	1.24e6
Kdm3	DRSC16393	1.51e6	1.59e6	1.23e6	1.34e6
RpS23	DRSC07169	9.13e5	1.05e6	8.35e5	8.44e5
CG12848	DRSC04128	1.70e6	1.75e6	1.43e6	1.55e6
Mct1	DRSC18681	1.54e6	1.54e6	1.13e6	1.25e6
disp	DRSC12376	1.52e6	1.64e6	1.26e6	1.35e6

6 of these entries, set out differently:
gene knocked down | dsRNA | Kc cell number, rep 1 | Kc cell number, rep 2 | S2R+ cell number, rep 1 | S2R+ cell number, rep 2
upSET | DRSC11051 | 8.66e5 (active) | 1.05e6 | 8.06e5 | 8.99e5
mahj | DRSC04053 | 1.26e6 | 1.37e6 | 9.13e5 | 9.50e5
klu | DRSC11357 | 1.53e6 | 1.46e6 | 1.22e6 | 1.34e6
l(3)72Dp | DRSC10477 | 1.38e6 | 1.54e6 | 1.31e6 | 1.42e6
CG5510 | DRSC15823 | 1.34e6 | 1.38e6 | 9.83e5 | 1.05e6
CG3955 | DRSC06859 | 1.25e6 | 1.34e6 | 1.01e6 | 1.02e6

The results go on:
gene knocked down	dsRNA	Kc cell number, rep 1	Kc cell number, rep 2	S2R+ cell number, rep 1	S2R+ cell number, rep 2
galla-2	DRSC10936	1.56e6	1.56e6	1.05e6	1.16e6
CG5986	DRSC15931	1.64e6	1.75e6	1.15e6	1.20e6
Acyp2	DRSC15336	1.35e6	1.41e6	1.07e6	1.21e6
CG17681	DRSC02632	1.62e6	1.67e6	1.33e6	1.52e6
CG10674	DRSC09775	1.24e6	1.25e6	1.12e6	1.18e6
Polr2B	DRSC16831	1.55e6	1.80e6	9.54e5	1.01e6
Polr3D	DRSC10485	1.46e6	1.49e6	1.11e6	1.22e6
Map205	DRSC16732	4.03e5		6.05e5	
IntS14	DRSC00668	1.25e6	1.37e6	9.97e5	9.82e5
CG14903	DRSC15024	1.47e6	1.50e6	1.08e6	1.28e6
CG12106	DRSC17805	5.79e5		9.61e5	
CG14492	DRSC06463	1.54e6	1.60e6	1.21e6	1.31e6
Art1	DRSC16063	1.56e6	1.61e6	1.33e6	1.45e6
Doa	DRSC13892	1.33e6	1.56e6	1.06e6	1.11e6
Doa	DRSC13893	1.33e6	1.47e6	1.06e6	1.07e6
Doa	DRSC13895	1.26e6	1.47e6	1.11e6	1.06e6
Doa	DRSC13896	1.32e6	1.51e6	1.07e6	1.08e6
Doa	DRSC13897	1.31e6	1.48e6	1.13e6	1.10e6
Doa	DRSC16650	5.33e5		9.35e5	
CG6048	DRSC18398	1.47e6	1.46e6	1.04e6	1.15e6
Roc1a	DRSC18483	1.36e6	1.43e6	7.03e5	8.17e5
CG9698	DRSC16539	1.72e6	1.82e6	1.01e6	1.15e6
Mco3	DRSC15926	1.34e6	1.48e6	9.81e5	1.02e6
fl(2)d	DRSC07620	1.60e6	1.66e6	1.13e6	1.28e6
MP1	DRSC12124	1.66e6	1.73e6	1.17e6	1.20e6
exex	DRSC10972	1.42e6	1.43e6	1.17e6	1.24e6
CG1233	DRSC08269	1.38e6	1.42e6	1.33e6	1.31e6
Ir10a	DRSC18891	1.36e6	1.52e6	1.09e6	1.11e6
Ir10a	DRSC19478	1.61e6	1.53e6	1.13e6	1.23e6
Ir10a	DRSC19479	1.57e6	1.52e6	1.11e6	1.28e6
